The source of these data is article PMC12165075.

Chains of the proteins cited; added tags and fusions are not shown.
UniProt Q06609: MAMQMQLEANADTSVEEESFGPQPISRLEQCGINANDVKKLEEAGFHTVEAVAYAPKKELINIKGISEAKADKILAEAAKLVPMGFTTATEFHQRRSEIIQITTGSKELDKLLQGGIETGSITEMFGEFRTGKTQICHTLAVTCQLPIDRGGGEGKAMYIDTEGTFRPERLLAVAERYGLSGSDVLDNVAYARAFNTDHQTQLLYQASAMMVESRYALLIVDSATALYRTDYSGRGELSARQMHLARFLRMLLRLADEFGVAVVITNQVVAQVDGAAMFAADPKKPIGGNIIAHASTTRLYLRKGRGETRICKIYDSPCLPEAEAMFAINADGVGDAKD

Results are given in words; binding and its absence hold for the method and conditions named. Binding seen in cells or lysates may run through a third protein. Some results given as binding are weak or reduced against the parent protein; the word gives no strength.

The target of this assay is RNF8 (as used in Figures S3d and S3g; construct not shown) (UniProt O76064). Description: co-IP; Figure S3g; RNF8 and RAD51 with regard to S157 phosphorylation; cells and constructs not told in the text shown.

Regarding RAD51 (from UniProt Q06609 1-339), the binding entry is reported as “binds”.
